No constants are given. Whether binding was seen depends on the method and setting. Binding seen in cells or lysates may run through a third protein. Some results given as binding are weak or reduced against the parent protein; the word gives no strength. For part of these data: Where a sequence is shown, tags or fusion partners need not be part of it.
T1: Flag-tagged USP15 (pcDNA3.1-USP15-Flag) (human) (UniProt Q9Y4E8)
T1 sequence: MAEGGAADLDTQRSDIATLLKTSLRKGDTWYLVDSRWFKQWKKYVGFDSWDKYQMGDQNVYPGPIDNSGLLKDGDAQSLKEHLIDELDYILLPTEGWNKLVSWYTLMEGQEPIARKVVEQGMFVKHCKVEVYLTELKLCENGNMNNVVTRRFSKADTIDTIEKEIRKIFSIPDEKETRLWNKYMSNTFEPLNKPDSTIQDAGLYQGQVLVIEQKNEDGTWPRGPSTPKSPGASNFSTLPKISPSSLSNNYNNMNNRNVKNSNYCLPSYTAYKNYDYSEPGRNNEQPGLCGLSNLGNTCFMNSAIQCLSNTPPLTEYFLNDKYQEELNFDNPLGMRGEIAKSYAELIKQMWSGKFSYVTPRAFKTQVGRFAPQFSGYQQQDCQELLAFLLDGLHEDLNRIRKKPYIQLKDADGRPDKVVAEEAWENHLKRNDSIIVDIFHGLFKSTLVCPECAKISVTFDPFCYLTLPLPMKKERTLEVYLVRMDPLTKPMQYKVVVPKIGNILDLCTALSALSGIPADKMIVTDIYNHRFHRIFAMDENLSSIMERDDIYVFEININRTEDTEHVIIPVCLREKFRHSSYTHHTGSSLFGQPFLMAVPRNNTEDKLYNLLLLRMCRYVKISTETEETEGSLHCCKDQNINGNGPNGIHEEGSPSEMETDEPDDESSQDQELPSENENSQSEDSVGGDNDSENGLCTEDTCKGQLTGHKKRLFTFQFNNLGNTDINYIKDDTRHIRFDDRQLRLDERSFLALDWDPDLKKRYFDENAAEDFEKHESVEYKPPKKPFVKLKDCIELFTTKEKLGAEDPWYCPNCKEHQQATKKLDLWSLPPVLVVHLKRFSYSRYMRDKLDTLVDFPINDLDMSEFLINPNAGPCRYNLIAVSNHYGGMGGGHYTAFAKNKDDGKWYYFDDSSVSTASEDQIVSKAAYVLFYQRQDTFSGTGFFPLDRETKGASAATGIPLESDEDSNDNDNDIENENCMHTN

Chains of the proteins cited; added tags and fusions are not shown.
UniProt O00425: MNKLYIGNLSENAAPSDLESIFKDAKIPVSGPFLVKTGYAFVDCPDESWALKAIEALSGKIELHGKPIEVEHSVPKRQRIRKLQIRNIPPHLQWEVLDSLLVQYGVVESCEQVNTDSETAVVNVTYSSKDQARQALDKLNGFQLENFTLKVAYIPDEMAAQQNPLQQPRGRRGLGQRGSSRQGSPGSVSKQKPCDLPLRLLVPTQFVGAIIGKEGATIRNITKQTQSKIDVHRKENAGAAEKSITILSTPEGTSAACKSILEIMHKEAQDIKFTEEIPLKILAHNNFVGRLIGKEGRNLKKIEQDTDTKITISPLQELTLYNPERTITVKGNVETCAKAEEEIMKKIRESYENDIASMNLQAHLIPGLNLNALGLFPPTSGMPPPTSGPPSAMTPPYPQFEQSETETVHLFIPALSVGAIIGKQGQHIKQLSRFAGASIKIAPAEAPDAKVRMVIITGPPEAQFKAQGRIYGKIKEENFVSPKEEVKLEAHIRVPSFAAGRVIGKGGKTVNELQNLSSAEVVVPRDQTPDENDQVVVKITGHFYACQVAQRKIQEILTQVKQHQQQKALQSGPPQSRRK

T2: Ubiquitin-specific protease 15 (USP15), endogenous (human (endogenous in SGC7901)) (UniProt Q9Y4E8)
T2 sequence: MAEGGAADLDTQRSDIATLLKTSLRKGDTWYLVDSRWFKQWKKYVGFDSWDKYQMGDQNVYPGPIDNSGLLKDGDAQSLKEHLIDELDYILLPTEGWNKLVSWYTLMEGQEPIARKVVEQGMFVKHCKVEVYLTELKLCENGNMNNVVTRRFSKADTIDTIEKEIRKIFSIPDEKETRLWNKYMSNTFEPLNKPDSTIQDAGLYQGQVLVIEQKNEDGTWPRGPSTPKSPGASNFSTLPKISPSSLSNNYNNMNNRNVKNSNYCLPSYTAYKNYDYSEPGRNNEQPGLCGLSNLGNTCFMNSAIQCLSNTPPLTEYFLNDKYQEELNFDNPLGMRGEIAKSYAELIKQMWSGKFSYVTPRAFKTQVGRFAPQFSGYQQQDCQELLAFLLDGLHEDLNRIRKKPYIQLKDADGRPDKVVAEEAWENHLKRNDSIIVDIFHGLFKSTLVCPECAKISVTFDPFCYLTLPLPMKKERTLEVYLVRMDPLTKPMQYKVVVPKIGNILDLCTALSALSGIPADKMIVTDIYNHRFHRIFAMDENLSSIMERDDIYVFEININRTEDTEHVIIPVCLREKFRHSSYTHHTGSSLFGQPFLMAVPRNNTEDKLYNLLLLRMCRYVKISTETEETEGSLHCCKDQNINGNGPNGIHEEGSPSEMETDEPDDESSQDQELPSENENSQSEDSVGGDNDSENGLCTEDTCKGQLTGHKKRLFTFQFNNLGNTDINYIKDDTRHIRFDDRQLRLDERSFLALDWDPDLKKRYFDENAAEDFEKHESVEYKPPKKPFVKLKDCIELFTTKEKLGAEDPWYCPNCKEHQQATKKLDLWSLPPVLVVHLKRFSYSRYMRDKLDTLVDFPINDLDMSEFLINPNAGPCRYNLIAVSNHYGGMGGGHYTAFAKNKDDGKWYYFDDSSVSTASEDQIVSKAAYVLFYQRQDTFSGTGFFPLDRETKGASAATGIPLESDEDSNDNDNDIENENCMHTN

T3: Hexokinase domain containing 1 (HKDC1), endogenous (human (endogenous in SGC7901 and NCI-N87)) (UniProt Q2TB90)
T3 sequence: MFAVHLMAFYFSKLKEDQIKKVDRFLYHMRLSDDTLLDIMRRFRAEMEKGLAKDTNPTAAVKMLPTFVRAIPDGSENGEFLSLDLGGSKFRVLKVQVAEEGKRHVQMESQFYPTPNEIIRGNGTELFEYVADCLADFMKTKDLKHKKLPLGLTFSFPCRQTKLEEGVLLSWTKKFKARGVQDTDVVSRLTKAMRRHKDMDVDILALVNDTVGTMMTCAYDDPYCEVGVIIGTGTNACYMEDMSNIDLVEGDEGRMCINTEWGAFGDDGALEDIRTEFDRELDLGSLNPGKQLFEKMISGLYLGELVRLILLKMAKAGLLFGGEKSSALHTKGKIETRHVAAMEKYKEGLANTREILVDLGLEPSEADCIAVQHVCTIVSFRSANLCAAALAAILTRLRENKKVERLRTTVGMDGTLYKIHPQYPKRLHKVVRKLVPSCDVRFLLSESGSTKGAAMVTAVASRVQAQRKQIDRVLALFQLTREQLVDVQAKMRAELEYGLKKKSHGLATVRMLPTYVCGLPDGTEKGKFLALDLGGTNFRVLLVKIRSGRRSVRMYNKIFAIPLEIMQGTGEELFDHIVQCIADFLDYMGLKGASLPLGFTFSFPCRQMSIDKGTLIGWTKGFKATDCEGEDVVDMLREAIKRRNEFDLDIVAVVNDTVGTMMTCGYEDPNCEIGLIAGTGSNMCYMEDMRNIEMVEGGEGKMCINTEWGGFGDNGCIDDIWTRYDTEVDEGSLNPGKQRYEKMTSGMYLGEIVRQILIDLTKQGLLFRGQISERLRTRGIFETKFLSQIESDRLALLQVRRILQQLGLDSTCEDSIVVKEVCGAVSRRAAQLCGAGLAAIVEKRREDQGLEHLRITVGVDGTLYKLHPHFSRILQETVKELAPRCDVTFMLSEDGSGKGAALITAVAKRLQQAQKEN


How the values were obtained:
[1] = target: T1, Flag-tagged USP15 (pcDNA3.1-USP15-Flag) (human); test: co-IP; lysates of N87 Flag-USP15 cells or Flag-EV cells immunoprecipitated with anti-Flag; western blot for HKDC1, IGF2BP3 and USP15
[2] = target: T2, Ubiquitin-specific protease 15 (USP15), endogenous (human (endogenous in SGC7901)); test: co-IP; SGC7901 cell lysates immunoprecipitated with anti-USP15 antibody, IgG as negative control; western blot for HKDC1, IGF2BP3 and USP15
[3] = target: Insulin like growth factor 2 mRNA binding protein 3 (IGF2BP3), endogenous (human (endogenous in SGC7901 and NCI-N87)) (UniProt O00425); test: co-IP; SGC7901 cell lysates immunoprecipitated with anti-HKDC1 or anti-IGF2BP3 antibody, IgG as negative control; western blot for HKDC1, IGF2BP3 and USP15
[4] = target: T3, Hexokinase domain containing 1 (HKDC1), endogenous (human (endogenous in SGC7901 and NCI-N87)); test: as above

binding [1]	binding [2]	binding [3]	binding [4]	Molecule
binds	binds			Insulin like growth factor 2 mRNA binding protein 3 (IGF2BP3), endogenous (from UniProt O00425 1-579)
binds	binds			Hexokinase domain containing 1 (HKDC1), endogenous (enzyme, UniProt Q2TB90 1-917) MFAVHLMAFYFSKLKEDQIKKVDRFLYHMRLSDDTLLDIMRRFRAEMEKGLAKDTNPTAAVKMLPTFVRAIPDGSENGEFLSLDLGGSKFRVLKVQVAEEGKRHVQMESQFYPTPNEIIRGNGTELFEYVADCLADFMKTKDLKHKKLPLGLTFSFPCRQTKLEEGVLLSWTKKFKARGVQDTDVVSRLTKAMRRHKDMDVDILALVNDTVGTMMTCAYDDPYCEVGVIIGTGTNACYMEDMSNIDLVEGDEGRMCINTEWGAFGDDGALEDIRTEFDRELDLGSLNPGKQLFEKMISGLYLGELVRLILLKMAKAGLLFGGEKSSALHTKGKIETRHVAAMEKYKEGLANTREILVDLGLEPSEADCIAVQHVCTIVSFRSANLCAAALAAILTRLRENKKVERLRTTVGMDGTLYKIHPQYPKRLHKVVRKLVPSCDVRFLLSESGSTKGAAMVTAVASRVQAQRKQIDRVLALFQLTREQLVDVQAKMRAELEYGLKKKSHGLATVRMLPTYVCGLPDGTEKGKFLALDLGGTNFRVLLVKIRSGRRSVRMYNKIFAIPLEIMQGTGEELFDHIVQCIADFLDYMGLKGASLPLGFTFSFPCRQMSIDKGTLIGWTKGFKATDCEGEDVVDMLREAIKRRNEFDLDIVAVVNDTVGTMMTCGYEDPNCEIGLIAGTGSNMCYMEDMRNIEMVEGGEGKMCINTEWGGFGDNGCIDDIWTRYDTEVDEGSLNPGKQRYEKMTSGMYLGEIVRQILIDLTKQGLLFRGQISERLRTRGIFETKFLSQIESDRLALLQVRRILQQLGLDSTCEDSIVVKEVCGAVSRRAAQLCGAGLAAIVEKRREDQGLEHLRITVGVDGTLYKLHPHFSRILQETVKELAPRCDVTFMLSEDGSGKGAALITAVAKRLQQAQKEN
		binds	binds	Ubiquitin-specific protease 15 (USP15), endogenous (enzyme, UniProt Q9Y4E8 1-981) MAEGGAADLDTQRSDIATLLKTSLRKGDTWYLVDSRWFKQWKKYVGFDSWDKYQMGDQNVYPGPIDNSGLLKDGDAQSLKEHLIDELDYILLPTEGWNKLVSWYTLMEGQEPIARKVVEQGMFVKHCKVEVYLTELKLCENGNMNNVVTRRFSKADTIDTIEKEIRKIFSIPDEKETRLWNKYMSNTFEPLNKPDSTIQDAGLYQGQVLVIEQKNEDGTWPRGPSTPKSPGASNFSTLPKISPSSLSNNYNNMNNRNVKNSNYCLPSYTAYKNYDYSEPGRNNEQPGLCGLSNLGNTCFMNSAIQCLSNTPPLTEYFLNDKYQEELNFDNPLGMRGEIAKSYAELIKQMWSGKFSYVTPRAFKTQVGRFAPQFSGYQQQDCQELLAFLLDGLHEDLNRIRKKPYIQLKDADGRPDKVVAEEAWENHLKRNDSIIVDIFHGLFKSTLVCPECAKISVTFDPFCYLTLPLPMKKERTLEVYLVRMDPLTKPMQYKVVVPKIGNILDLCTALSALSGIPADKMIVTDIYNHRFHRIFAMDENLSSIMERDDIYVFEININRTEDTEHVIIPVCLREKFRHSSYTHHTGSSLFGQPFLMAVPRNNTEDKLYNLLLLRMCRYVKISTETEETEGSLHCCKDQNINGNGPNGIHEEGSPSEMETDEPDDESSQDQELPSENENSQSEDSVGGDNDSENGLCTEDTCKGQLTGHKKRLFTFQFNNLGNTDINYIKDDTRHIRFDDRQLRLDERSFLALDWDPDLKKRYFDENAAEDFEKHESVEYKPPKKPFVKLKDCIELFTTKEKLGAEDPWYCPNCKEHQQATKKLDLWSLPPVLVVHLKRFSYSRYMRDKLDTLVDFPINDLDMSEFLINPNAGPCRYNLIAVSNHYGGMGGGHYTAFAKNKDDGKWYYFDDSSVSTASEDQIVSKAAYVLFYQRQDTFSGTGFFPLDRETKGASAATGIPLESDEDSNDNDNDIENENCMHTN

Source: PMC11334570
